The target in this test is TRIM66 (human (endogenous in NSCLC cells)) (UniProt O15016). In words: co-IP; cell lysate in Co-IP buffer with protease inhibitors, precleared with protein A/G beads; immunoprecipitation with TRIM66 antibody or control IgG for more than 4 h at 4°C; protein A/G capture, washed three times with PBS; Western blot. (In general: In western blotting, separated proteins are transferred to a membrane and probed.)

Sequences of proteins named here, by UniProt entry; tags and fusion partners are left off. A change or cut given only in a name is not applied to a line headed by its entry.
UniProt O15016: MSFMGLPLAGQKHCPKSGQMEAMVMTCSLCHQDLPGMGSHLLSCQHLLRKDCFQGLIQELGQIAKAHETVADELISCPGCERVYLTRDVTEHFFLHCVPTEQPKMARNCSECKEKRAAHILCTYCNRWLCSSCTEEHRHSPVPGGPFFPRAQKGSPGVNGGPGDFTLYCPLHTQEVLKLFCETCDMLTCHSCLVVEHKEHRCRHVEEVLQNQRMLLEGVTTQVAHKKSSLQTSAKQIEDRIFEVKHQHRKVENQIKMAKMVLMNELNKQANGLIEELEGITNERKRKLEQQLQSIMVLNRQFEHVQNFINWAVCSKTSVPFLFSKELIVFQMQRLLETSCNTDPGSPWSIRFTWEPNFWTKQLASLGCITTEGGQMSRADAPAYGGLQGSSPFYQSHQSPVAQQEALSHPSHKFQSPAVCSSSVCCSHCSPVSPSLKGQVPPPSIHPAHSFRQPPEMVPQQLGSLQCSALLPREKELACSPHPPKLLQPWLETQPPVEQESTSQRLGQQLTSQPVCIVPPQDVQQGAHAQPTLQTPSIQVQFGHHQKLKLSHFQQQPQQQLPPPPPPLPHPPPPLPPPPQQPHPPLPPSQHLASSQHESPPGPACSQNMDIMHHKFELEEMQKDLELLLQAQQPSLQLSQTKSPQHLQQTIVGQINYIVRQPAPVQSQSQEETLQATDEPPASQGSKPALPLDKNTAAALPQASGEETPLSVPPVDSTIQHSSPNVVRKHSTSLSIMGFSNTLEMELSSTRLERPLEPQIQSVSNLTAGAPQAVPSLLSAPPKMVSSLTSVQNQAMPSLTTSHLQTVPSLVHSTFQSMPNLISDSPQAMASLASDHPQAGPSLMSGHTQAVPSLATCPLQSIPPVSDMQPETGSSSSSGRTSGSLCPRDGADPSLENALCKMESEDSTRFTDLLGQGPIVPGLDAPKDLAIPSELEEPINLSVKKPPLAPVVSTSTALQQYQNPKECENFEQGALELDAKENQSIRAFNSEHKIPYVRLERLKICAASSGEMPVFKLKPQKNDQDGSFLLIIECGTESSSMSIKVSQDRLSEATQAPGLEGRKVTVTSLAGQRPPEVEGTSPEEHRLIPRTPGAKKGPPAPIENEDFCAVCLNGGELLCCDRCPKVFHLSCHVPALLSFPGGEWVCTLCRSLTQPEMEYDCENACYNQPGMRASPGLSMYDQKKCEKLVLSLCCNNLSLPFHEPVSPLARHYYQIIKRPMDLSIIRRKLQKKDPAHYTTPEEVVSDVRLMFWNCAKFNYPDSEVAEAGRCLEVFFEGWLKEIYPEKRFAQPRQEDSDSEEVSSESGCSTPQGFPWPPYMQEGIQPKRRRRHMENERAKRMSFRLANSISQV
UniProt P08253: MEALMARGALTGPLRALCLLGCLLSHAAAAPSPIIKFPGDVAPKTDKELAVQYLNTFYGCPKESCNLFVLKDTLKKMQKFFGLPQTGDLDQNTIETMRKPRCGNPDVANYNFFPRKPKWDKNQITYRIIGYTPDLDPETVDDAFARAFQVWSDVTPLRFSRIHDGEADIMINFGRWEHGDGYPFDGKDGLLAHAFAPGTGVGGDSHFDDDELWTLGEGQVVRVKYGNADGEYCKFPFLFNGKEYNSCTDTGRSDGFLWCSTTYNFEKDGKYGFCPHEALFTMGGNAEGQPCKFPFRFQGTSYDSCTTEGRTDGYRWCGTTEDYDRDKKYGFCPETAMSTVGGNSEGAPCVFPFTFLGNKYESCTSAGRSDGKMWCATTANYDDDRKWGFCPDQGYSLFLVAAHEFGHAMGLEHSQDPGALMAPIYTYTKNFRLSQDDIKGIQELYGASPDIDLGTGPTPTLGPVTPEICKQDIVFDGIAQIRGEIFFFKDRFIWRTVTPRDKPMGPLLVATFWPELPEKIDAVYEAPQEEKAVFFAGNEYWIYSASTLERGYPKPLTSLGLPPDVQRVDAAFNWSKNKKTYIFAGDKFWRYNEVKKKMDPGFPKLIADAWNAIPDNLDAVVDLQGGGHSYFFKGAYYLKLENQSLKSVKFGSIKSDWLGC
UniProt P14780: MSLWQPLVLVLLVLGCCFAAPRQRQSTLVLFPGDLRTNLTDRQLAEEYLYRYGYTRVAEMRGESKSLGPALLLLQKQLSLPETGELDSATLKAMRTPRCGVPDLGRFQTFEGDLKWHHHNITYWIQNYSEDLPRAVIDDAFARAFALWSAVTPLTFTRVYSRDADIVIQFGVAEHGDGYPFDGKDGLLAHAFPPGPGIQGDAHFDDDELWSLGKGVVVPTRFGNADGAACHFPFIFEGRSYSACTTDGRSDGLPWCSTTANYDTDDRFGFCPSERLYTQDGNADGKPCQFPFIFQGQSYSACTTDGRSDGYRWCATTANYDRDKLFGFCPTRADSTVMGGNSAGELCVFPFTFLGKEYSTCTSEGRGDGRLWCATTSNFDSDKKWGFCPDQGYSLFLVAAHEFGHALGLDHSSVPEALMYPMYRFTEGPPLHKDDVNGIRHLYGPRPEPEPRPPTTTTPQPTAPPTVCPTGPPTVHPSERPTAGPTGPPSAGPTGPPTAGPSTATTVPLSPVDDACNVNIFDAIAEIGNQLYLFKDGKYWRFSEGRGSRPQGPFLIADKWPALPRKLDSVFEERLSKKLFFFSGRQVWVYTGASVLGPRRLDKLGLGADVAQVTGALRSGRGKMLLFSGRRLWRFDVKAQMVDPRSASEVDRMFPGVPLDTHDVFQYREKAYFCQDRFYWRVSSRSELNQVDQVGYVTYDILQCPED

Results are given in words; binding and its absence hold for the method and conditions named. In cells and extracts the contact can be indirect. A result given as binding can be weak or reduced; the word gives no strength.

Results on two substances are retold here after PMC9334090.

For the substance MMP2 (from UniProt P08253), the binding result is given as “no binding”.

For “Matrix metalloproteinase 9 (from UniProt P14780)”, the binding result was “binds”.
